# Laboratory results published in paper doi:10.1101/2022.02.23.481674.
# Protein sequences, listed by entry. Tags and fused reporters are not part of them. Lines headed by an entry give the natural chain unless they say otherwise; changes in a name come on top.
# UniProt P16070: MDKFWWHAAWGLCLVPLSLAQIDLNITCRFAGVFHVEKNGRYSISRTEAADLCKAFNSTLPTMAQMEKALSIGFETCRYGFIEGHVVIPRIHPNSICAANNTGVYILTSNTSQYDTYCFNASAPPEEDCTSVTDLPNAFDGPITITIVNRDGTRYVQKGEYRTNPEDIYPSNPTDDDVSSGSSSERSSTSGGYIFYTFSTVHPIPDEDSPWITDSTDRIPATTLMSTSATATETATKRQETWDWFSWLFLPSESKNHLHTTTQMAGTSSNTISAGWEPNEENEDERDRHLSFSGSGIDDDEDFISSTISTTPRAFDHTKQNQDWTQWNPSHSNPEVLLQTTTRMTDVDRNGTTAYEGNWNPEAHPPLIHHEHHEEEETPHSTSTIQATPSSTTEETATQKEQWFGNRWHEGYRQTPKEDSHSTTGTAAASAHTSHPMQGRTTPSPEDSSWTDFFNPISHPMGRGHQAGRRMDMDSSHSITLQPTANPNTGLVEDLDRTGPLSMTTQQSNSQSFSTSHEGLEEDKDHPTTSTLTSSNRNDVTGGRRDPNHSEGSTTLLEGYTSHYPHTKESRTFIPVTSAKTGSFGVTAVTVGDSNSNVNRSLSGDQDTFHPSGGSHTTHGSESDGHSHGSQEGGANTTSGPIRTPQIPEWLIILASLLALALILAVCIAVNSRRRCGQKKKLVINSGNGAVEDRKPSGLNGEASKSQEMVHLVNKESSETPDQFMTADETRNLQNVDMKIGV
# No constants are given. Whether binding was seen depends on the method and setting. Binding seen in cells or lysates may run through a third protein. Binding calls can cover weak binding; strength is not graded here. Sequences can lack the tags named with a protein.
# Biological target: Flag-tagged CD44 mutant CD44.m2 (point mutations in domain II) (human) (UniProt P16070)
# Assay: co-IP
binder,measurement,value
"HA-tagged CD81 (pCMV3-HA-CD81, Sino Biological) (protein, UniProt P60033 10-236) IKYLLFVFNFVFWLAGGVILGVALWLRHDPQTTNLLYLELGDKPAPNTFYVGIYILIAVGAVMMFVGFLGCYGAIQESQCLLGTFFTCLVILFACEVAAGIWGFVNKDQIAKDVKQFYDQALQQAVVDDDANNAKAVVKTFHETLDCCGSSTLTALTTSVLKNNLCPSGSNIISNLFKEDCHQKIDDLFSGKLYLIGIAAIVVAVIMIFEMILSMVLCCGIRNSSVY",binding,binds
